Measured values: patent publication US12440610B2, “Coated medical devices and methods of inhibiting implant-associated infections” (UNIVERSITY OF CINCINNATI, priority 2017, dated 2025)
“Also recorded” adds a separate entry of the source. At least one structure is not confirmed: it was looked up by name or label, or the drawing left a doubt.

Tested on: MRSA
Assay: Local tissue inflammation around subcutaneous PTFE implants after infection (gross, H&E, Ly6 immunohistochemistry)
Assay type: in vivo, S. aureus
Conditions: CF-1 mice, subcutaneous coated PTFE

## C[C@H]1c2cccc(O)c2C(=O)C2=C(O)[C@]3(O)C(=O)C(C(N)=O)=C(O)[C@@H](N(C)C)[C@@H]3[C@@H](O)[C@@H]21 [Doxycycline, Doxycycline Hyclate]
2.5 million cfu S. aureus
  local inflammation, Ly6-g neutrophil marker immunohistochemistry: prevent local inflammation
2.5 million cfu S. aureus/MRSA
  abscess formation and local inflammation (gross appearance): prevent local inflammation; also recorded: prevented
  local inflammation, leukocytes (Hematoxylin and Eosin staining): prevent local inflammation; also recorded: absence of inflammation
